{"source": "PubChem BioAssay AID1508587 (Peter MacCallum Cancer Centre, 2020)", "aim": "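Follow-up of vemurafenib sensitisers scored by lactate made per cell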 (follow-up of hits)", "system": "human WM266.4 melanoma cells with a BRAF V600 mutation", "knock-down reagent": "single siRNA against human genes, 25 nM", "time to read-out": "96 h", "challenge": "vemurafenib 300 nM (about IC25), given 48 h after transfection for 48 h", "detection": "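Medium lactate read by absorbance over DAPI-counted nuclei; ratio with versus without vemurafenib, set against non-targeting siRNA, averaged over 2 replicates; cell number also recorded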", "scale": "lactate per cell, drug vs no drug: higher = less drug-induced drop in lactate per cell", "active means": "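a duplex is active when its lactate-per-cell ratio with versus without drug falls under 0.55, i.e. 2 SD below non-targeting; a gene is confirmed if 2 or more of 4 duplexes pass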", "note": "In all, the deposit lists about 1,600 reagents; this is a part drawn at random. In the full data, 623 (39%) got an active call. 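Calls are for each duplex; lactate ratios contain extreme outliers.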 The numbers tell different reagents against one gene apart. Further read-outs or replicates are left out here. No sequences are given here."}
{"Gene":"TYK2","reagent no.":1,"lactate per cell, drug vs no drug":0.7,"call":"inactive"}
{"Gene":"TYK2","reagent no.":2,"lactate per cell, drug vs no drug":0.6,"call":"inactive"}
{"Gene":"TYK2","reagent no.":3,"lactate per cell, drug vs no drug":0.66,"call":"inactive"}
{"Gene":"TYK2","reagent no.":4,"lactate per cell, drug vs no drug":0.44,"call":"active"}
{"Gene":"KLK7","reagent no.":1,"lactate per cell, drug vs no drug":0.49,"call":"active"}
{"Gene":"KLK7","reagent no.":2,"lactate per cell, drug vs no drug":0.48,"call":"active"}
{"Gene":"KLK7","reagent no.":3,"lactate per cell, drug vs no drug":0.38,"call":"active"}
{"Gene":"KLK7","reagent no.":4,"lactate per cell, drug vs no drug":0.7,"call":"inactive"}
{"Gene":"H2AC17","reagent no.":1,"lactate per cell, drug vs no drug":0.53,"call":"active"}
{"Gene":"H2AC17","reagent no.":2,"lactate per cell, drug vs no drug":0.55,"call":"inactive"}
{"Gene":"H2AC17","reagent no.":3,"lactate per cell, drug vs no drug":0.42,"call":"active"}
{"Gene":"H2AC17","reagent no.":4,"lactate per cell, drug vs no drug":0.74,"call":"inactive"}

A run of entries from the list above:
{"Gene":"TYK2","reagent no.":3,"lactate per cell, drug vs no drug":0.66,"call":"inactive"}
{"Gene":"TYK2","reagent no.":4,"lactate per cell, drug vs no drug":0.44,"call":"active"}

The results go on.
{"Gene":"PRPF40B","reagent no.":1,"lactate per cell, drug vs no drug":0.37,"call":"active"}
{"Gene":"PRPF40B","reagent no.":2,"lactate per cell, drug vs no drug":0.55,"call":"inactive"}
{"Gene":"PRPF40B","reagent no.":3,"lactate per cell, drug vs no drug":0.53,"call":"active"}
{"Gene":"PRPF40B","reagent no.":4,"lactate per cell, drug vs no drug":0.4,"call":"active"}
{"Gene":"CANX","reagent no.":1,"lactate per cell, drug vs no drug":0.18,"call":"active"}
{"Gene":"CANX","reagent no.":2,"lactate per cell, drug vs no drug":0.96,"call":"inactive"}
{"Gene":"CANX","reagent no.":3,"lactate per cell, drug vs no drug":0.76,"call":"inactive"}
{"Gene":"CANX","reagent no.":4,"lactate per cell, drug vs no drug":0.69,"call":"inactive"}
{"Gene":"LYRM2","reagent no.":1,"lactate per cell, drug vs no drug":0.66,"call":"inactive"}
{"Gene":"LYRM2","reagent no.":2,"lactate per cell, drug vs no drug":0.38,"call":"active"}
{"Gene":"LYRM2","reagent no.":3,"lactate per cell, drug vs no drug":0.51,"call":"active"}
{"Gene":"LYRM2","reagent no.":4,"lactate per cell, drug vs no drug":0.7,"call":"inactive"}
{"Gene":"HDHD2","reagent no.":1,"lactate per cell, drug vs no drug":0.66,"call":"inactive"}
{"Gene":"HDHD2","reagent no.":2,"lactate per cell, drug vs no drug":0.56,"call":"inactive"}
{"Gene":"HDHD2","reagent no.":3,"lactate per cell, drug vs no drug":0.62,"call":"inactive"}
{"Gene":"HDHD2","reagent no.":4,"lactate per cell, drug vs no drug":0.64,"call":"inactive"}
